Experiment in all cases: DAPPL (digital affinity profiling via proximity ligation, sequencing)
Holding throughout (conditions): 10 mM Tris-HCl pH 7.5, 50 mM NaCl, 1 mM DTT, 4% glycerol, room temperature, 30 min; GST-TFs on glutathione beads, 16-mer random dsDNA library, 0.1% …; high values mean tight binding; double strand, one strand shown; scale: fold enrichment (6-mer frequency, TF over GST control)

Protein sequences, listed by entry. Tags and fused reporters are not part of them. Lines headed by an entry give the natural chain unless they say otherwise; changes in a name come on top.
UniProt P32519: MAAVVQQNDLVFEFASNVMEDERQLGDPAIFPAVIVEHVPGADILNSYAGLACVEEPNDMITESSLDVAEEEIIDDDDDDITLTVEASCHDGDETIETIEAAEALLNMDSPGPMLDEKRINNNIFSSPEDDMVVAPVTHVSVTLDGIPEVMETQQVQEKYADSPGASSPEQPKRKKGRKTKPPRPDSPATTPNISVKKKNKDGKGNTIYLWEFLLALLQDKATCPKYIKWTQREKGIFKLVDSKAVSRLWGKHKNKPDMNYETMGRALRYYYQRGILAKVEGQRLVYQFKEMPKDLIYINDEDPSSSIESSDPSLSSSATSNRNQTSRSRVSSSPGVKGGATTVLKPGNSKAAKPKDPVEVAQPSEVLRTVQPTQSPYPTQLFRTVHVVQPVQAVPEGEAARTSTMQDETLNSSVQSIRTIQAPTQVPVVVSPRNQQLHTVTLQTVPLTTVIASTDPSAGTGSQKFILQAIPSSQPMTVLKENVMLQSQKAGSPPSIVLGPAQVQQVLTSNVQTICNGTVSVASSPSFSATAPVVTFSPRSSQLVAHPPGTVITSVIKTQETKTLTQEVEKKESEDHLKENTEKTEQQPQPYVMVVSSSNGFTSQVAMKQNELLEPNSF
UniProt P50549: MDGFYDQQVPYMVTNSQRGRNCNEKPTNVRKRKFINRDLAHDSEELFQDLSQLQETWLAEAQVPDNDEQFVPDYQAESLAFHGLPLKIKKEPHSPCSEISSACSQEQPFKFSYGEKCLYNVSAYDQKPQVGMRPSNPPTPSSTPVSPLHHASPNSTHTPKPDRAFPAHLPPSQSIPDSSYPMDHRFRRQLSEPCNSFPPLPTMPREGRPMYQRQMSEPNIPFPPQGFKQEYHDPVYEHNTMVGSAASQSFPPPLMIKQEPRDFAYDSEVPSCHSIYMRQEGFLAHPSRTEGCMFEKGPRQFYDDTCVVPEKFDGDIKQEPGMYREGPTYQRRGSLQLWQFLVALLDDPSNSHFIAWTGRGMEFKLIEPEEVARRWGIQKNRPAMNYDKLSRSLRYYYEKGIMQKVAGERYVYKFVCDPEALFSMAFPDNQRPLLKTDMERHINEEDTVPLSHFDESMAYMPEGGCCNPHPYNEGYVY

One experiment concerns the target T1, ERG (UniProt P11308).
T1 sequence: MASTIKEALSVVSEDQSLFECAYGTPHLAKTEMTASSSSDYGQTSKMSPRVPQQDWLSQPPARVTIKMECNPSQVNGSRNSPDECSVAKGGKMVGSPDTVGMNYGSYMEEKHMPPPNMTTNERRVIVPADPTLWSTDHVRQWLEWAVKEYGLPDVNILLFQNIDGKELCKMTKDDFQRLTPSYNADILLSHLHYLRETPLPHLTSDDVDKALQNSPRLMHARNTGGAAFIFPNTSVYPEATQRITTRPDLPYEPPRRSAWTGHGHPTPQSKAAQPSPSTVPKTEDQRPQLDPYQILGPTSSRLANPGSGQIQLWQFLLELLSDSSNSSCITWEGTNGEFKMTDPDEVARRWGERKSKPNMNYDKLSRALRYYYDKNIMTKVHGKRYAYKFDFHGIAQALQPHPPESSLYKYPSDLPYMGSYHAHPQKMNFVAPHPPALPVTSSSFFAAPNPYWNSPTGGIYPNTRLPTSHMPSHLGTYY

The next experiment addresses ELF1 (UniProt P32519).
In the next experiment the target is T2, ELK4 (UniProt P28324-2).
T2 sequence: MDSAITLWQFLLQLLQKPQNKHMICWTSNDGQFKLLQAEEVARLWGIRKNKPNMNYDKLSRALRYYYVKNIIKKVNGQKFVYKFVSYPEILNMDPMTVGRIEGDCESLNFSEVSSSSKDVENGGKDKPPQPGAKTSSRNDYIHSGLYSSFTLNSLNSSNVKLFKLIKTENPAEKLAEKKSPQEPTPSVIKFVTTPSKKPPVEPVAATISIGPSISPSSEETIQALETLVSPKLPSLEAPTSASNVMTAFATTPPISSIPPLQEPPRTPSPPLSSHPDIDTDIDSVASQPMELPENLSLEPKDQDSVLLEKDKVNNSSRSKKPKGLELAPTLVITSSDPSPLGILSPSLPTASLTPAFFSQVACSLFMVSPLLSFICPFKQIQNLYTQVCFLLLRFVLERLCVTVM

A further experiment concerns the target T3, ETV4 (UniProt P43268).
T3 sequence: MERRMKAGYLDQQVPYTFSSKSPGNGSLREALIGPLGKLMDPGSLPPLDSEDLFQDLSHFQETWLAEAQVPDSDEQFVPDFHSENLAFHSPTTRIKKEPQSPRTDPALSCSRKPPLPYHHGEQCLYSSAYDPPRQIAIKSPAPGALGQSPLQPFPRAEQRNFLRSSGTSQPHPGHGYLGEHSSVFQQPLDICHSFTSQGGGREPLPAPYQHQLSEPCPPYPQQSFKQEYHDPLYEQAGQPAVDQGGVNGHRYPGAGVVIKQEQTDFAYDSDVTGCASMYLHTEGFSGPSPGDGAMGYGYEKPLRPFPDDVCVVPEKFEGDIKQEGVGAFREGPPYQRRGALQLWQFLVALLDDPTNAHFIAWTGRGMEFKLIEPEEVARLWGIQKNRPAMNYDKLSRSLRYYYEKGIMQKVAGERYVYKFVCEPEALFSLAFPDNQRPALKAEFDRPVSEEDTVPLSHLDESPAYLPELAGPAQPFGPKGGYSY

In another experiment the target is ETV1 (UniProt P50549).
The target of a further experiment is T4, ERF (UniProt P50548).
T4 sequence: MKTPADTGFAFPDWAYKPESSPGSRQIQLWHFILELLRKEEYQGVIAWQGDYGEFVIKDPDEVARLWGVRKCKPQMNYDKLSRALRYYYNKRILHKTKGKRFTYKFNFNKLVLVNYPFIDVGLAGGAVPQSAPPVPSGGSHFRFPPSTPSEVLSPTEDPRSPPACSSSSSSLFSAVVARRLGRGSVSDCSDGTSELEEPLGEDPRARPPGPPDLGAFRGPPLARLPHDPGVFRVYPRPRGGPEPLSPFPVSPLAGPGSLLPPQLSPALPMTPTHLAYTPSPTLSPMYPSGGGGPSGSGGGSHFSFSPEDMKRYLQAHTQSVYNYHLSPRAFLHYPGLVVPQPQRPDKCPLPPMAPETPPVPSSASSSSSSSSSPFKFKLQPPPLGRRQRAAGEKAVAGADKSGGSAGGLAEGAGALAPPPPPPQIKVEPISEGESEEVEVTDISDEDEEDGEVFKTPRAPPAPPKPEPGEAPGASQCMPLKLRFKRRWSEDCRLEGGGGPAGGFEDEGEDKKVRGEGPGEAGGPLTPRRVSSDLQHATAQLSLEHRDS

The entries are a selection whose mix differs from that of the whole data set. For part of these data: At the low end of the ranking, values are background and their order means little. The list shows a part of the results. For part of these data: Construct or isoform of the protein are uncertain.

Turning to AGTGGA, the binding signal stood at 0.818 with ERG; 0.76 with ELF1; 0.883 in the experiment with ELK4; 0.742 in the experiment with ETV4; 0.766 in the experiment with ETV1; 0.714 with ERF.
GGTTAG: the binding signal with ERG came to 0.8; in the experiment with ELF1, 0.775; with ELK4, 0.917; with ETV4, 0.815; in the experiment with ETV1 it was 0.779; in the experiment with ERF it was 0.741.
Regarding GGTGAG, the binding signal in the experiment with ERG is 0.34; with ELF1, 0.379; with ELK4, 0.436; with ETV4, 0.337; with ETV1, 0.338; with ERF, 0.385.
Consider AGGACG, for which the binding signal in the experiment with ERG came to 0.496; with ELF1, 0.473; in the experiment with ELK4, 0.463; with ETV4 it was 0.477; in the experiment with ETV1, 0.45; with ERF, 0.443.
TCGGGC: the binding signal in the experiment with ERG is 0.505; in the experiment with ELF1, 0.522; in the experiment with ELK4, 0.503; with ETV4 it was 0.502; in the experiment with ETV1, 0.512; with ERF it was 0.501.
As for GGACCA, the binding signal stood at 0.748 with ERG; 0.803 with ELF1; 0.672 with ELK4; 0.792 in the experiment with ETV4; 0.701 with ETV1; 0.752 with ERF.
For the sequence CCAGGA, the binding signal is 0.666 in the experiment with ERG; 0.661 with ELF1; 0.593 with ELK4; 0.65 with ETV4; 0.729 in the experiment with ETV1; 0.654 with ERF.
As for CCGGGG, the binding signal with ERG turned out to be 0.769; with ELF1, 0.808; with ELK4 it was 0.722; in the experiment with ETV4, 0.762; with ETV1 it was 0.842; with ERF, 0.791.
GTTAGT: the binding signal amounted to 0.811 in the experiment with ERG; 0.77 with ELF1; 0.845 with ELK4; 0.8 in the experiment with ETV4; 0.79 with ETV1; 0.773 with ERF.
Consider CCGTGC, for which the binding signal with ERG stood at 0.665; with ELF1 it was 0.564; with ELK4, 0.551; with ETV4, 0.629; in the experiment with ETV1 it was 0.647; with ERF, 0.628.
With AGTTGA, the binding signal in the experiment with ERG was 0.783; with ELF1, 0.785; in the experiment with ELK4, 0.861; in the experiment with ETV4, 0.805; with ETV1 it was 0.76; in the experiment with ERF, 0.85.
As for AGCACC, the binding signal was determined as 0.978 with ERG; 0.953 in the experiment with ELF1; 0.845 with ELK4; 0.923 with ETV4; 0.906 with ETV1; 1.03 with ERF.
With TATCGG, the binding signal with ERG worked out at 0.832; with ELF1 it was 0.811; with ELK4, 0.904; with ETV4 it was 0.748; with ETV1 it was 0.791; with ERF, 0.895.
As to GACGAG, the binding signal came out at 0.521 with ERG; 0.567 with ELF1; 0.542 with ELK4; 0.576 in the experiment with ETV4; 0.552 with ETV1; 0.547 with ERF.
Take GTGACG: the binding signal with ERG was found to be 0.691; with ELF1 it was 0.689; with ELK4 it was 0.608; in the experiment with ETV4, 0.701; in the experiment with ETV1, 0.639; with ERF it was 0.625.
Regarding AAAGTG, the binding signal with ERG is 0.911; in the experiment with ELF1, 0.948; with ELK4 it was 0.893; with ETV4 it was 0.904; with ETV1, 0.884; with ERF it was 0.822.
As to AGTTGG, the binding signal with ERG came to 0.49; with ELF1, 0.49; in the experiment with ELK4, 0.451; with ETV4, 0.465; with ETV1, 0.451; with ERF, 0.472.
Consider CAAGGA, for which the binding signal with ERG came to 0.775; with ELF1, 0.8; with ELK4, 0.695; in the experiment with ETV4, 0.709; with ETV1 it was 0.781; with ERF it was 0.763.
In the case of GTAGGA, the binding signal was determined as 0.652 with ERG; 0.536 in the experiment with ELF1; 0.533 in the experiment with ELK4; 0.594 with ETV4; 0.589 with ETV1; 0.603 with ERF.
For the sequence GTAAGA, the binding signal was found to be 0.83 with ERG; 0.792 with ELF1; 0.856 with ELK4; 0.798 in the experiment with ETV4; 0.797 with ETV1; 0.83 with ERF.
With GGCATG, the binding signal with ERG is 0.887; in the experiment with ELF1, 0.854; with ELK4 it was 0.915; with ETV4 it was 0.906; with ETV1, 0.945; with ERF it was 0.842.
Take GACGGA: the binding signal with ERG was determined as 0.542; in the experiment with ELF1, 0.477; with ELK4, 0.458; with ETV4 it was 0.487; with ETV1, 0.488; with ERF, 0.501.
On to GACTAG, for which the binding signal turned out to be 0.688 with ERG; 0.715 in the experiment with ELF1; 0.793 in the experiment with ELK4; 0.761 with ETV4; 0.791 with ETV1; 0.799 with ERF.
In the case of TCGTAA, the binding signal in the experiment with ERG is 0.925; in the experiment with ELF1 it was 0.892; with ELK4, 0.76; with ETV4, 0.925; with ETV1, 0.96; in the experiment with ERF it was 0.984.
In the case of AGTCCG, the binding signal is 0.631 in the experiment with ERG; 0.55 in the experiment with ELF1; 0.619 in the experiment with ELK4; 0.568 with ETV4; 0.542 with ETV1; 0.518 with ERF.
Take GAGAGC: the binding signal with ERG worked out at 0.343; with ELF1 it was 0.375; in the experiment with ELK4, 0.377; in the experiment with ETV4 it was 0.381; with ETV1, 0.36; with ERF, 0.355.
On to CCGTAG, for which the binding signal was 0.84 in the experiment with ERG; 0.933 with ELF1; 0.986 in the experiment with ELK4; 0.823 with ETV4; 0.867 with ETV1; 0.838 with ERF.
For the sequence AGTGCG, the binding signal came out at 0.882 with ERG; 0.876 with ELF1; 0.768 with ELK4; 0.847 in the experiment with ETV4; 0.826 in the experiment with ETV1; 0.885 with ERF.
For GCCATA, the binding signal amounted to 0.879 with ERG; 0.949 with ELF1; 0.853 with ELK4; 0.974 with ETV4; 0.94 with ETV1; 0.984 with ERF.
Consider CGTGAG, for which the binding signal in the experiment with ERG is 0.123; with ELF1 it was 0.112; with ELK4, 0.13; in the experiment with ETV4, 0.108; in the experiment with ETV1, 0.118; with ERF, 0.129.

The values above are taken from article PMC7862700.
